In the supplement of paper PMC6411743:
± gives the standard deviation of the averaged measurements. The list shows a part of the results.

By UniProt entry, the sequences of proteins in these tests, tags left out. Where a name states a change or a piece, a line headed by the entry shows the natural chain unless it says otherwise.
UniProt O75909: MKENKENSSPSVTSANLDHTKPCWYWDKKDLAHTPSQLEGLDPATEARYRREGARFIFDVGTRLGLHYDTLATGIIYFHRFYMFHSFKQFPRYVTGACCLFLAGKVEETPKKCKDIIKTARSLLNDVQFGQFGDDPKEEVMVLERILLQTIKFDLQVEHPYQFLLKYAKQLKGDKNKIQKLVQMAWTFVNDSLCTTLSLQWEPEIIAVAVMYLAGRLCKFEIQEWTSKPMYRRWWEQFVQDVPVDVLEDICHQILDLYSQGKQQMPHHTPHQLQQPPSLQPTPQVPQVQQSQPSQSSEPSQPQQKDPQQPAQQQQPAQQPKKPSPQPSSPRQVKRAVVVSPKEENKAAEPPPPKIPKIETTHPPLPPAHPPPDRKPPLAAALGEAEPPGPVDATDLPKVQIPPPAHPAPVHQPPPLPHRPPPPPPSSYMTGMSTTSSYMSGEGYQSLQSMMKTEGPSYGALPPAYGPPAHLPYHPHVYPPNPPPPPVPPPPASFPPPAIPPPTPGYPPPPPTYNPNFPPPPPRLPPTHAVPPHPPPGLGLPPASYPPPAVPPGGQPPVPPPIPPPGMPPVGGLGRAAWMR
UniProt P06730, whole entry: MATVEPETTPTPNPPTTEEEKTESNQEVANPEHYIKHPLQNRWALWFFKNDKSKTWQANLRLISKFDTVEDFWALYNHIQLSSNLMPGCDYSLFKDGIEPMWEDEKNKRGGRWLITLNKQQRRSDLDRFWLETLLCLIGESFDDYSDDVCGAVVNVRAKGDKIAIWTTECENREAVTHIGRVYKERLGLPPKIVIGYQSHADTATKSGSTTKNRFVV
UniProt P04424, whole entry: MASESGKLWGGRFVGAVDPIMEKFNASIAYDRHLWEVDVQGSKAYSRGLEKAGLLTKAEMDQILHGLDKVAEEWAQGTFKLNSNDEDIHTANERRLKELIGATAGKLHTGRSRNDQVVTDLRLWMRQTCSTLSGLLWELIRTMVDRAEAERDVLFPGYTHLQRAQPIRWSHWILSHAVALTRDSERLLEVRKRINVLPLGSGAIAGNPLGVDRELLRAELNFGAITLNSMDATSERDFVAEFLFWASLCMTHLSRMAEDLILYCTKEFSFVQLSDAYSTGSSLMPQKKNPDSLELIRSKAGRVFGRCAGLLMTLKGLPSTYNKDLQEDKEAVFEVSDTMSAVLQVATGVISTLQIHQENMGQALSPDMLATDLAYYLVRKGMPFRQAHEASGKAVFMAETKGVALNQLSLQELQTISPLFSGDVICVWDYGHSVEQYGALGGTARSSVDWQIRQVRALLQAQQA
UniProt O95456: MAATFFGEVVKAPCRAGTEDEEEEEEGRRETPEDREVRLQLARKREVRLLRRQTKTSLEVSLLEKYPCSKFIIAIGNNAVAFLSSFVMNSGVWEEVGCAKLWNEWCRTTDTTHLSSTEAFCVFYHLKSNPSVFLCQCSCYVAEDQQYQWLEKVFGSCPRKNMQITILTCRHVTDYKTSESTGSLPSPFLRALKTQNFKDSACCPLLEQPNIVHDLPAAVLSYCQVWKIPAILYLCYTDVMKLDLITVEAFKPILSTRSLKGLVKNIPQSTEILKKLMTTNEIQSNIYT
UniProt O94913, whole entry: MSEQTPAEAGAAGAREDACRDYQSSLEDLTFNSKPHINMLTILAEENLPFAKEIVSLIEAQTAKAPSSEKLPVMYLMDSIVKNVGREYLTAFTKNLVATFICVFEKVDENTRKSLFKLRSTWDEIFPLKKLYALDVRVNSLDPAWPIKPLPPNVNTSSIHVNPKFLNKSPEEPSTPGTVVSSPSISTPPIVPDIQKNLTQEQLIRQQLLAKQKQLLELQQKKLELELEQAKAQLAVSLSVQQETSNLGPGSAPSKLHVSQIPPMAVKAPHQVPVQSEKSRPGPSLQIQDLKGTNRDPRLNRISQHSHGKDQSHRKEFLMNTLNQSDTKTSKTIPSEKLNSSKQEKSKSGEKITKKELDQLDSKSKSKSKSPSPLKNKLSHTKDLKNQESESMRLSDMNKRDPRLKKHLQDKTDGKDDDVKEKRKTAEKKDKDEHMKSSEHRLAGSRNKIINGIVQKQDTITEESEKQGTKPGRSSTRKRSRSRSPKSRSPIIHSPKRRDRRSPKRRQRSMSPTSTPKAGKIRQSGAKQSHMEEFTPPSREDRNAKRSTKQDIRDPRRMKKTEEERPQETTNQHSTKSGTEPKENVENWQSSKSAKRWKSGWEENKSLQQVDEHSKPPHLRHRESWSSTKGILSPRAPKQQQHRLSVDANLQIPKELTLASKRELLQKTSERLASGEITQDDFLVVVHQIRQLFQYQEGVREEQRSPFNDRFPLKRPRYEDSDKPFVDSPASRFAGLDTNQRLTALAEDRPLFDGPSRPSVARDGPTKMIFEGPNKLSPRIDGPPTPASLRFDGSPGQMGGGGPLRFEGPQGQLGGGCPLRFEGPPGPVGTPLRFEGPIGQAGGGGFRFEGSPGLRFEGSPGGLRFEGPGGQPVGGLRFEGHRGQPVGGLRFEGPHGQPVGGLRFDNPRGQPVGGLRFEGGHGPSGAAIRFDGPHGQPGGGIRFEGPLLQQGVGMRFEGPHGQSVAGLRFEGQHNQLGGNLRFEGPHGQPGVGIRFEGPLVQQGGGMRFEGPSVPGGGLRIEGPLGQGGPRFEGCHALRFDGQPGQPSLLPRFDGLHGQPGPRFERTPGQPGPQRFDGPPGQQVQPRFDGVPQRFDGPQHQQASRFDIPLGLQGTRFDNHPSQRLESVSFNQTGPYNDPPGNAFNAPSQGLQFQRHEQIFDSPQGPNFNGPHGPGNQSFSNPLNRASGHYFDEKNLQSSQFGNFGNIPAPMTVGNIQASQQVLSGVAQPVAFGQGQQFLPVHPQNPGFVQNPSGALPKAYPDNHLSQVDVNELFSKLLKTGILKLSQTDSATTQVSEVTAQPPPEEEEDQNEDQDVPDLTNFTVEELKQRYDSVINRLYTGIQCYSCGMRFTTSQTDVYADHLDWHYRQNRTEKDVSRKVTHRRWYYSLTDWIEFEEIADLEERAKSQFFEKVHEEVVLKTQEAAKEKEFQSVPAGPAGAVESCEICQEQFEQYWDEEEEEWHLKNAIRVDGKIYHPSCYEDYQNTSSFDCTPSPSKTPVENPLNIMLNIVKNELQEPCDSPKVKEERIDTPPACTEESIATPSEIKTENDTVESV
UniProt O95243: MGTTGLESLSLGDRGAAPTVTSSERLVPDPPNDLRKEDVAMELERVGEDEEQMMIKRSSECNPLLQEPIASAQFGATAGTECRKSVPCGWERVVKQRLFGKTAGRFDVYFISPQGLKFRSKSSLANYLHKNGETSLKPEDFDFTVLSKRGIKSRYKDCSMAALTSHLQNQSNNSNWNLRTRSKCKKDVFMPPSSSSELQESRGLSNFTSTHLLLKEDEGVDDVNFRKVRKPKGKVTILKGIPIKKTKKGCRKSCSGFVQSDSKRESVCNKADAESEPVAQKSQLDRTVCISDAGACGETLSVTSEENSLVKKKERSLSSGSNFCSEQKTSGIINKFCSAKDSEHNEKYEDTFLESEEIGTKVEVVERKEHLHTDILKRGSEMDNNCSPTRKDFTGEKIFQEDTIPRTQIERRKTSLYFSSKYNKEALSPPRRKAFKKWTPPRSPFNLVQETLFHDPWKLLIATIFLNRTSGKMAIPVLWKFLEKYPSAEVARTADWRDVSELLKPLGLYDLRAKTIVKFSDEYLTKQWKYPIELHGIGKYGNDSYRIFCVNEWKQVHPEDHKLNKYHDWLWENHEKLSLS
UniProt O75326: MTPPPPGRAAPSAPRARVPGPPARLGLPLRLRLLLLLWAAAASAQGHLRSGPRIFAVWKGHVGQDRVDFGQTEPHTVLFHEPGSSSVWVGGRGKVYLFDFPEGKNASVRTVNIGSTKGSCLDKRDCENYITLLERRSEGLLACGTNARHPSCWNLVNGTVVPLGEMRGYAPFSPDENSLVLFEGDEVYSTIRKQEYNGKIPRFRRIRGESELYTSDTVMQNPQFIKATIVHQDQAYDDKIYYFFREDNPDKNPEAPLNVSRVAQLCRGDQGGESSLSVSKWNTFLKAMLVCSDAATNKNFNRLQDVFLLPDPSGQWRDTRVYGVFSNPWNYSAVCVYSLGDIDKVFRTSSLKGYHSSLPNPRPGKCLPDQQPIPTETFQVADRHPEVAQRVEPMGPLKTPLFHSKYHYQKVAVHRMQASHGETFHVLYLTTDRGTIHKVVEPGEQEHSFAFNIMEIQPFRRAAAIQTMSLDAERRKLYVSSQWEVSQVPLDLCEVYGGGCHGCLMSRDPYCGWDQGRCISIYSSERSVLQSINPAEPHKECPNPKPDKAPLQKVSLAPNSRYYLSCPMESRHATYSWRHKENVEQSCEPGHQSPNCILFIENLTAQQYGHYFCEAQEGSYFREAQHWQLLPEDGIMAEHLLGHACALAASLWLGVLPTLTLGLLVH
UniProt O95202: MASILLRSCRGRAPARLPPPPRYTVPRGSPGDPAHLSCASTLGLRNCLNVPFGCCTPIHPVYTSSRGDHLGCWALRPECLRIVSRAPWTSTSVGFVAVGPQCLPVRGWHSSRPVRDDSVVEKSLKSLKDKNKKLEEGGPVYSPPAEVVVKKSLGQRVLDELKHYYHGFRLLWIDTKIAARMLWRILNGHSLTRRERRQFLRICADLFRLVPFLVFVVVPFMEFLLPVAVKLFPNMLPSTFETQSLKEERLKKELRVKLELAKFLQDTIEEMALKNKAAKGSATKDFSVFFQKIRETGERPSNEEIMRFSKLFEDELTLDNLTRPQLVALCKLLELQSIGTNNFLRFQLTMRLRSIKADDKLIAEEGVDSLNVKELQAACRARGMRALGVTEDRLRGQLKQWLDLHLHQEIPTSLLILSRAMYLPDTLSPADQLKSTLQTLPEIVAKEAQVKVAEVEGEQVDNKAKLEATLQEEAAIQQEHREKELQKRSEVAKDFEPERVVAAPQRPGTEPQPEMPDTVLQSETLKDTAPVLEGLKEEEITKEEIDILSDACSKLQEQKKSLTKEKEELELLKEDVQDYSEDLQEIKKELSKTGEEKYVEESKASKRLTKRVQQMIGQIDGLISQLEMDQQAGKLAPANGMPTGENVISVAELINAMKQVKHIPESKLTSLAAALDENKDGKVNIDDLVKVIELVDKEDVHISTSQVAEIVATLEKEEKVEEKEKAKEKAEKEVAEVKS
UniProt P00813: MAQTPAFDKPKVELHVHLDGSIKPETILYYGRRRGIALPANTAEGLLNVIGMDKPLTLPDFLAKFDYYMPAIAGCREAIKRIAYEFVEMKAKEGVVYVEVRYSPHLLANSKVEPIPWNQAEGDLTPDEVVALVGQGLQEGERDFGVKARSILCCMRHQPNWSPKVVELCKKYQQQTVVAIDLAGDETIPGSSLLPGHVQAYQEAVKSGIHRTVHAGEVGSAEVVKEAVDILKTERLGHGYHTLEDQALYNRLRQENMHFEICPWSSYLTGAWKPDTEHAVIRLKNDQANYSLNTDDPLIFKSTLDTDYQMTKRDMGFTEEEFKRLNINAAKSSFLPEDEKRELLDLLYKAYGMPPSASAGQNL
UniProt O95571: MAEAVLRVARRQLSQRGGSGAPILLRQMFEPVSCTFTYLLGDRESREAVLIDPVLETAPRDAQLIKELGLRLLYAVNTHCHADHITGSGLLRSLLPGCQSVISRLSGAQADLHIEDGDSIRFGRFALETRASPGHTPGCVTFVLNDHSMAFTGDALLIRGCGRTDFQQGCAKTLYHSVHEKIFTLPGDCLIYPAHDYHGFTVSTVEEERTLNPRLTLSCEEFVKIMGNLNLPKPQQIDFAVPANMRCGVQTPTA
UniProt O76003: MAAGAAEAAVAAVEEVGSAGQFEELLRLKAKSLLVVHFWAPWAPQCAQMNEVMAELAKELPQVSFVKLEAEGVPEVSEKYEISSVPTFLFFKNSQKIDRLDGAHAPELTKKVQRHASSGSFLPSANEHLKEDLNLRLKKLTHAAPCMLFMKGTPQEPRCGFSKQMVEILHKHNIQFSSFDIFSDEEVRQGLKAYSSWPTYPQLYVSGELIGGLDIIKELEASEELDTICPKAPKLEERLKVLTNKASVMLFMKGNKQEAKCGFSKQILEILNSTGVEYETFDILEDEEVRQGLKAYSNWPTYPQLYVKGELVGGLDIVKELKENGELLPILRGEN
UniProt O75489, whole entry: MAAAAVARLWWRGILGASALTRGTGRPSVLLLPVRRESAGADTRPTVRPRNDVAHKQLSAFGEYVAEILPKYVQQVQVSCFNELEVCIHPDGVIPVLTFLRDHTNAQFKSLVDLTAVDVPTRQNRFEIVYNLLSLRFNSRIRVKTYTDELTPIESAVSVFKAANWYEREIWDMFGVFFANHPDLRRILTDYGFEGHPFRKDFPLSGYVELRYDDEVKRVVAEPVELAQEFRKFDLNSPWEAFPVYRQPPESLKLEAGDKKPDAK
UniProt O96007: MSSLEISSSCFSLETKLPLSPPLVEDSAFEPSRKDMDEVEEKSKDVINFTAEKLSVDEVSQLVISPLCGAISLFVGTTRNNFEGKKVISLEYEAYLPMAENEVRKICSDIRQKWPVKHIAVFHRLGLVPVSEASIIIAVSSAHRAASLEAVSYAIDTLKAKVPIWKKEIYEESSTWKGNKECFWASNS
UniProt O96033: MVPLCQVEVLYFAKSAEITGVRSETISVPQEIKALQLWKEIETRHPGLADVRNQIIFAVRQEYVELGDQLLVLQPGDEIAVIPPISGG

Compound: Nc1nc2c(ncn2[C@@H]2O[C@H](COP(=O)(O)OP(=O)(O)OP(=O)(O)O)[C@@H](O)[C@H]2O)c(=O)[nH]1 [guanosine triphosphate]
Assay: NP40-soluble protein abundance relative to vehicle (solubility fold change) (ratio); higher = more soluble protein in presence of GTP
Method in brief: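 Jurkat crude lysate prepared with a Dounce homogeniser was treated at eight concentrations spanning 0.1 to 10 mM, 10 min at room temperature then 3 min at 37 °C. Solubilisation with 0.8% NP40 and benzonase and ultracentrifugation preceded TMT labelling of the supernatant for LC-MS/MS. Fold change against the detergent-processed vehicle was determined per replicate from vsn-normalised intensities, across three independent experiments.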

Target	NP40-soluble protein abundance (concentration: 0.1mM)	NP40-soluble protein abundance (concentration: 0.5mM)	NP40-soluble protein abundance (concentration: 1mM)	NP40-soluble protein abundance (concentration: 2mM)	NP40-soluble protein abundance (concentration: 4mM)	NP40-soluble protein abundance (concentration: 6mM)	NP40-soluble protein abundance (concentration: 8mM)	NP40-soluble protein abundance (concentration: 10mM)
ZNF217 (UniProt O75362)	1 ± 0.011	1.02 ± 0.024	1.02 ± 0.028	1.06 ± 0.042	1.03 ± 0.05	1.05 ± 0.077	1.09 ± 0.1	1.08 ± 0.13
UniProt O75909 and related entries	1.04 ± 0.014	1.08 ± 0.034	1.13 ± 0.028	1.07 ± 0.085	1.12 ± 0.086	1.09 ± 0.081	1.134 ± 0.009	1.07 ± 0.052
UniProt O95613 and related entries	0.988 ± 0.063	0.945 ± 0.051	1.02 ± 0.065	0.988 ± 0.082	1.03 ± 0.039	1 ± 0.029	1.04 ± 0.032	1.01 ± 0.04
UniProt P06730 and related entries	0.967 ± 0.02	0.991 ± 0.029	0.968 ± 0.04	0.962 ± 0.019	0.96 ± 0.019	0.974 ± 0.015	0.946 ± 0.035	0.948 ± 0.032
UniProt P04424 and related entries	1.06 ± 0.1	1.07 ± 0.1	0.988 ± 0.09	1.06 ± 0.036	0.984 ± 0.13	0.959 ± 0.036	0.953 ± 0.11	0.93 ± 0.096
UniProt O75475 and related entries	1.01 ± 0.064	1.02 ± 0.064	1.07 ± 0.09	1.08 ± 0.093	1.18 ± 0.098	1.17 ± 0.098	1.26 ± 0.12	1.22 ± 0.12
SSB (UniProt P05455)	0.888 ± 0.058	0.918 ± 0.073	0.904 ± 0.073	0.869 ± 0.093	0.835 ± 0.083	0.882 ± 0.086	0.866 ± 0.073	0.879 ± 0.07
UniProt O94768	0.999 ± 0.12	1.08 ± 0.057	0.938 ± 0.1	1.07 ± 0.038	0.928 ± 0.089	1.04 ± 0.043	0.975 ± 0.071	0.992 ± 0.043
SLU7 (UniProt O95391)	0.951 ± 0.062	0.91 ± 0.097	0.965 ± 0.091	0.989 ± 0.074	1.01 ± 0.015	1.06 ± 0.027	1.2 ± 0.054	1.22 ± 0.067
UniProt O95456 and related entries	0.947 ± 0.1	0.941 ± 0.078	0.913 ± 0.082	0.911 ± 0.074	0.923 ± 0.063	0.91 ± 0.081	0.916 ± 0.09	0.903 ± 0.088
UniProt O94913 and related entries	0.991 ± 0.054	1.01 ± 0.049	1.04 ± 0.055	1.01 ± 0.078	1.06 ± 0.061	1.06 ± 0.059	1.12 ± 0.064	1.11 ± 0.065
UniProt O95243 and related entries	1.04 ± 0.033	0.984 ± 0.083	1.06 ± 0.012	1.07 ± 0.059	1.18 ± 0.11	1.17 ± 0.055	1.15 ± 0.076	1.054 ± 0.0097
SEMA7A (UniProt O75326)	0.993 ± 0.023	0.955 ± 0.072	0.996 ± 0.076	1 ± 0.14	0.978 ± 0.1	1.03 ± 0.091	1.03 ± 0.057	1 ± 0.072
UniProt P06729	0.895 ± 0.023	0.902 ± 0.035	0.912 ± 0.02	0.88 ± 0.072	0.852 ± 0.038	0.89 ± 0.053	0.893 ± 0.036	0.903 ± 0.039
HEXIM1 (UniProt O94992)	0.925 ± 0.032	0.88 ± 0.09	1.03 ± 0.024	1.01 ± 0.093	1.05 ± 0.054	1.08 ± 0.038	1.13 ± 0.053	1.25 ± 0.032
UniProt P00338 and related entries	0.983 ± 0.024	1.03 ± 0.057	0.901 ± 0.024	0.904 ± 0.065	0.885 ± 0.047	0.878 ± 0.042	0.842 ± 0.028	0.823 ± 0.058
LETM1 (UniProt O95202)	0.897 ± 0.019	0.877 ± 0.033	0.959 ± 0.03	0.927 ± 0.065	0.939 ± 0.057	0.947 ± 0.069	0.964 ± 0.061	0.984 ± 0.044
ANXA1 (UniProt P04083)	0.854 ± 0.025	0.818 ± 0.074	0.895 ± 0.04	0.868 ± 0.064	0.857 ± 0.061	0.86 ± 0.072	0.796 ± 0.12	0.867 ± 0.082
UniProt O75528 and related entries	1.04 ± 0.072	0.978 ± 0.066	1.17 ± 0.15	1.15 ± 0.049	1.18 ± 0.12	1.2 ± 0.031	1.23 ± 0.14	1.32 ± 0.14
UniProt O75935 and related entries	0.987 ± 0.23	0.965 ± 0.24	1.2 ± 0.39	1.28 ± 0.38	1.23 ± 0.36	1.23 ± 0.31	1.14 ± 0.36	1.33 ± 0.56
SMC2 (UniProt O95347)	0.985 ± 0.023	1.01 ± 0.022	0.987 ± 0.027	0.983 ± 0.035	0.993 ± 0.041	1.01 ± 0.042	1.01 ± 0.072	0.977 ± 0.046
ADA (UniProt P00813)	0.955 ± 0.28	0.879 ± 0.16	0.898 ± 0.27	0.824 ± 0.15	0.848 ± 0.25	0.807 ± 0.15	0.831 ± 0.28	0.781 ± 0.12
HPRT1 (UniProt P00492)	1.01 ± 0.059	1 ± 0.035	0.91 ± 0.022	0.905 ± 0.044	0.913 ± 0.033	0.88 ± 0.024	0.835 ± 0.071	0.823 ± 0.093

Some values from the results shown.
UniProt O95243 and related entries | NP40-soluble protein abundance (concentration: 1mM): 1.06 ± 0.012
UniProt O95613 and related entries | NP40-soluble protein abundance (concentration: 10mM): 1.01 ± 0.04
HPRT1 (UniProt P00492) | NP40-soluble protein abundance (concentration: 1mM): 0.91 ± 0.022
UniProt P06730 and related entries | NP40-soluble protein abundance (concentration: 2mM): 0.962 ± 0.019

(further entries)

Target	NP40-soluble protein abundance (concentration: 0.1mM)	NP40-soluble protein abundance (concentration: 0.5mM)	NP40-soluble protein abundance (concentration: 1mM)	NP40-soluble protein abundance (concentration: 2mM)	NP40-soluble protein abundance (concentration: 4mM)	NP40-soluble protein abundance (concentration: 6mM)	NP40-soluble protein abundance (concentration: 8mM)	NP40-soluble protein abundance (concentration: 10mM)
UniProt O95639 and related entries	0.989 ± 0.087	1.1 ± 0.036	1.11 ± 0.11	1.22 ± 0.13	1.21 ± 0.15	1.3 ± 0.12	1.31 ± 0.19	1.34 ± 0.1
PPP1R11 (UniProt O60927)	1.07 ± 0.062	1.02 ± 0.1	1.06 ± 0.07	1.06 ± 0.061	1.05 ± 0.05	1.06 ± 0.097	1.07 ± 0.052	1.06 ± 0.092
CIAO1 (UniProt O76071)	1.2 ± 0.18	1.15 ± 0.18	1.08 ± 0.096	1.11 ± 0.18	1.04 ± 0.18	1.03 ± 0.16	1.02 ± 0.07	1.05 ± 0.17
SASH3 (UniProt O75995)	0.954 ± 0.059	0.955 ± 0.056	0.939 ± 0.099	0.886 ± 0.14	0.847 ± 0.16	0.865 ± 0.14	0.845 ± 0.12	0.855 ± 0.11
ETHE1 (UniProt O95571)	0.999 ± 0.025	0.971 ± 0.017	0.958 ± 0.059	0.893 ± 0.066	0.901 ± 0.075	0.883 ± 0.076	0.888 ± 0.07	0.848 ± 0.067
GLRX3 (UniProt O76003)	0.92 ± 0.052	0.946 ± 0.058	0.934 ± 0.068	0.882 ± 0.088	0.864 ± 0.075	0.885 ± 0.085	0.885 ± 0.035	0.871 ± 0.081
UniProt O95155 and related entries	1.09 ± 0.054	1.04 ± 0.068	1.06 ± 0.057	0.999 ± 0.03	1.04 ± 0.047	1 ± 0.059	1.02 ± 0.077	0.969 ± 0.022
UniProt O75530 and related entries	1.15 ± 0.091	1.2 ± 0.082	1.13 ± 0.096	1.22 ± 0.11	1.25 ± 0.12	1.29 ± 0.15	1.34 ± 0.11	1.31 ± 0.12
ZC3H11A (UniProt O75152)	0.916 ± 0.066	0.876 ± 0.081	0.871 ± 0.095	0.868 ± 0.1	0.972 ± 0.076	1.02 ± 0.075	1.09 ± 0.051	1.08 ± 0.069
UniProt P04899 and related entries	1.04 ± 0.033	1.03 ± 0.012	0.987 ± 0.011	0.9841 ± 0.007	0.988 ± 0.035	0.963 ± 0.023	0.934 ± 0.018	0.908 ± 0.069
UniProt O75787 and related entries	1.05 ± 0.028	1.06 ± 0.038	0.988 ± 0.029	1.06 ± 0.054	1.05 ± 0.033	0.974 ± 0.038	1.02 ± 0.036	1.02 ± 0.014
SLC25A5 (UniProt P05141)	1.02 ± 0.056	1.01 ± 0.078	0.993 ± 0.09	1.06 ± 0.13	1.15 ± 0.17	1.08 ± 0.19	1.07 ± 0.1	1.09 ± 0.052
SOD1 (UniProt P00441)	0.907 ± 0.076	0.901 ± 0.084	0.922 ± 0.12	0.846 ± 0.13	0.841 ± 0.13	0.848 ± 0.14	0.855 ± 0.09	0.86 ± 0.1
P00403 and related entries (UniProt Q8IVS2)	1.06 ± 0.15	1.07 ± 0.15	0.952 ± 0.12	0.978 ± 0.2	0.963 ± 0.15	0.941 ± 0.14	0.883 ± 0.14	0.89 ± 0.17
UniProt P04053 and related entries	1.14 ± 0.083	1.13 ± 0.06	1.01 ± 0.056	1.05 ± 0.057	1.05 ± 0.053	1.02 ± 0.032	0.947 ± 0.1	0.923 ± 0.051
UniProt O94927	0.965 ± 0.026	0.968 ± 0.072	0.965 ± 0.028	0.9729 ± 0.0057	0.9737 ± 0.0073	0.99 ± 0.047	0.956 ± 0.04	0.983 ± 0.022
UniProt P04035 and related entries	1.05 ± 0.043	1.06 ± 0.087	0.937 ± 0.15	1.08 ± 0.2	1.03 ± 0.11	1.042 ± 0.0053	1 ± 0.074	0.891 ± 0.11
NDUFS3 (UniProt O75489)	1.02 ± 0.032	1.02 ± 0.033	1.04 ± 0.026	1.06 ± 0.016	1.08 ± 0.07	1.05 ± 0.056	1.06 ± 0.082	1.06 ± 0.07
OAT (UniProt P04181)	0.9948 ± 0.0051	1.02 ± 0.037	0.975 ± 0.04	0.954 ± 0.088	0.882 ± 0.14	0.881 ± 0.12	0.762 ± 0.067	0.825 ± 0.099
FAM20B (UniProt O75063)	1.16 ± 0.087	1.15 ± 0.052	1.01 ± 0.011	1.07 ± 0.064	0.981 ± 0.044	1.02 ± 0.014	0.978 ± 0.075	0.92 ± 0.0029
UniProt P06126	1.1 ± 0.021	0.926 ± 0.13	0.963 ± 0.024	0.961 ± 0.1	0.954 ± 0.05	1 ± 0.02	0.998 ± 0.11	0.899 ± 0.023
GIGYF1 (UniProt O75420)	1.01 ± 0.053	1.07 ± 0.2	1.03 ± 0.082	1.08 ± 0.049	1.17 ± 0.15	1.13 ± 0.12	1.002 ± 0.01	0.952 ± 0.062
O96007 and related entries (UniProt O96033+O96007)	0.856 ± 0.057	0.867 ± 0.039	0.833 ± 0.066	0.882 ± 0.056	0.822 ± 0.041	0.855 ± 0.051	0.832 ± 0.1	0.833 ± 0.051
